# Data reported in PubChem BioAssay AID1688 (National Center for Advancing Translational Sciences (NCATS), 2009).
# In all, about 220,000 compounds went through this assay and about 2,400 (1.1%) were called active. Inconclusive means that the source gave no clear call. Such entries were picked first, then a sample of the others. The call rests on the fitted dose curve; in most records, active means well fitted inhibition curve with a large enough effect; inconclusive means small, poorly fitted or top-dose-only effect, or effect the other way; inactive means no such curve, though single readings can be large or run the other way. Potencies beside an inconclusive call are fits to weak or partial responses and may not hold up.
# Assay: qHTS Multiplex Assay to Identify Dual Action Probes in a Cell Model of Huntington: Aggregate Formation (GFP); further: nearly all actives have a fitted effect of over 60% in size
# Details: PC12 HttQ103-GFP aggregates, Acumen cytometry, 40 h; activity change, negative = inhibition: at 46.1 µM (top of the series) unless noted
# In short: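 PC12 cells with ecdysone-inducible HTT exon1 Q103-GFP, induced by 100 nM tebufenozide, given compounds in a concentration series. GFP aggregates (1–25 um, 6 SD above background) counted in lysates by laser-scanning cytometry, 488 nm excitation.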
# On the % scale 0 is the no-effect control and ±100 the full control effect; potency means the concentration at half of the fitted maximal effect.
Structure (SMILES),Potency,"activity change, negative = inhibition"
Cn1c(=O)[nH]c(=O)c2c1nc(N1CCC(Cc3ccccc3)CC1)n2Cc1ccccc1,"inconclusive: 35.5 µM [inhibitor, single point]",–
O=C(NC(=S)Nc1ccccc1N1CCCCC1)c1ccccc1,–,inactive: 2.89% [at 9.22 µM]
COc1ccc(CCNC(=O)C23CN(Cc4ccccc4)CC2C(c2ccc([N+](=O)[O-])cc2)=NO3)cc1 (stereo unspecified),–,inactive: 11.4%
CCc1nc2ccccc2n1Cc1ccccc1OC,"inconclusive: 15.8 µM [inhibitor, single point]",–
O=c1oc2ccccc2c(Nc2ccc3ccccc3c2)c1[N+](=O)[O-],"inconclusive: 15.8 µM [inhibitor, single point]",–
COc1cc(/C=C/C(=O)OCC(=O)Nc2ccc(S(=O)(=O)N3CCCC3)cc2)ccc1O,–,inactive: -8.79%
CN(C)CCNC(=O)c1cc2sc3ccccc3c2s1,"inconclusive: 0.708 µM [activator, single point]",–
O=C1NC(=O)/C(=C/c2ccccc2Oc2ccc(Cl)cc2)S1,"inconclusive: 5.62 µM [inhibitor, partial curve]",–
O=C(c1ccc(S(=O)(=O)Cc2ccccc2F)c([N+](=O)[O-])c1)N1CCCC1,"inconclusive: 35.5 µM [inhibitor, single point]",–
O=C(O)c1cccc(N2C(=O)C3CC=CCC3C2=O)c1 (stereo unspecified),–,inactive: 20.1%
CCn1c(SCC(=O)c2cc(C)ccc2C)nc2cc(S(=O)(=O)N3CCOCC3)ccc21,"inconclusive: 17.8 µM [activator, single point]",–
O=C(NCc1cccnc1)C1COc2ccccc2O1 (stereo unspecified),–,inactive: 14.8%
CCCCn1c(SCC(=O)N2CCC(C)CC2)nc2ccsc2c1=O,"inconclusive: 35.5 µM [inhibitor, single point]",–
COc1ccc2cc1Oc1ccc(cc1)CC1c3c(cc(OC)c4c3Oc3cc5c(cc3O4)CCNC5C2)CCN1C (stereo unspecified),active: 3.98 µM,–
CCOc1ccccc1N=CC1=C(O)CC(c2ccccc2)CC1=O (stereo unspecified),"inconclusive: 1.12 µM [activator, full curve, poor fit]",–
CCc1ccc(NC(=O)c2ccc3c(=O)n4c(nc3c2)CCCCC4)cc1,–,inactive: 12.5% [at 9.22 µM]
COc1ccc(S(=O)(=O)N2CCOCC2)cc1NC(=O)CSc1cccc[n+]1[O-],–,inactive: -1.72% [at 9.22 µM]
Clc1ccccc1-c1ccc(/C=N/Nc2nncc(-c3ccccc3)n2)o1,–,inactive: 10.7%
COc1cc2nc(/C=C/c3ccc(N(C)C)cc3)sc2cc1SC,"inconclusive: 25.1 µM [inhibitor, single point]",–
CCC(C)(C)c1ccc(OCCCC[n+]2ccccc2)c(C(C)(C)CC)c1,"inconclusive: 22.4 µM [inhibitor, single point]",–
Cc1nc(NC(=O)c2ccccc2)sc1-c1csc(Nc2ccc(Cl)cc2)n1,–,inactive: 0.873%
Cc1ccc(C2C3CN(C(C)C)CC=C3C(C#N)=C(N)C2(C#N)C#N)cc1 (stereo unspecified),"inconclusive: 7.94 µM [activator, partial curve]",–
O=C1CCCN1CCC1CCN(C2CC(=O)N(c3ccc(Cl)cc3)C2=O)CC1 (stereo unspecified),–,inactive: 11%

Structure (SMILES),Potency,"activity change, negative = inhibition"
Cc1cc2oc(=O)cc(CN3CCc4ccccc43)c2cc1Cl,–,inactive: 18.2%
CCc1ccc2c(c1)CCCN2C(=O)c1ccccc1C(=O)O,"inconclusive: 35.5 µM [inhibitor, single point]",–
Cc1nnc(N/N=C/c2ccc(-c3ccccc3F)o2)n1N,–,inactive: -14.7%
COCC(C)n1c(C)cc(C(=O)CSc2nnc(Nc3ccccc3F)s2)c1C (stereo unspecified),"inconclusive: 35.5 µM [inhibitor, single point]",–
CCOC(=O)c1c(N2C(=O)C=CC2=O)sc(C)c1C,"inconclusive: 35.5 µM [inhibitor, single point]",–
N#Cc1c(/N=C/c2ccco2)sc2c1CCCCC2,–,inactive: -26.7%
N=c1ccn(Cc2ccc(Cl)cc2)cc1,active: 6.31 µM,–
CN1CCN(C2=C(Cl)C(=O)N(c3ccc(Cl)c(Cl)c3)C2=O)CC1,–,inactive: 16%
Cc1ccc(/C=C/C(=O)Nc2ncc(C)s2)o1,"inconclusive: 0.562 µM [activator, full curve, poor fit]",–
CCCCOc1ccc(NC(=O)c2cnc(C)cn2)cc1,"inconclusive: 11.2 µM [inhibitor, partial curve, poor fit]",–
CCOC(=O)C(C)Sc1cc(CS(=O)(=O)c2ccccc2)nc(-c2ccccc2)n1 (stereo unspecified),"inconclusive: 3.16 µM [inhibitor, single point]",–
CCc1ccc(NC(=O)C(CC)Sc2nc3cc4c(cc3c(=O)n2Cc2ccco2)OCO4)cc1 (stereo unspecified),"inconclusive: 15.8 µM [inhibitor, single point]",–
Cc1nn(-c2ccc(F)cc2)c(C)c1NS(=O)(=O)c1ccc2ccccc2c1,"inconclusive: 11.2 µM [inhibitor, single point]",–
COc1ccc(CNC(=O)Cn2cnc3c(=O)n(C)c(=O)n(C)c32)cc1,active: 0.631 µM,–
Cc1[nH]n(-c2ccccc2)c(=O)c1/C=N/Nc1nncc(-c2ccccc2)n1,"inconclusive: 0.631 µM [inhibitor, full curve]",–
CN1CCC(=NNc2ncnc3sc4c(c23)CCCC4)CC1,"inconclusive: 35.5 µM [inhibitor, single point]",–
CCOC(=O)Cc1c(C)nc2c(-c3cccc(Br)c3)c[nH]n2c1=O,active: 11.2 µM,–
Cc1cc(C(=O)NC(C)CCC(C)C)c2ccccc2n1 (stereo unspecified),–,inactive: -5.09%
CCOC(=O)C1=C(N)N(c2ccc(C)cc2)C2=C(C(=O)CCC2)C1c1cccs1 (stereo unspecified),"inconclusive: 14.1 µM [inhibitor, single point]",–
Cc1ccc(C2=NOC(C)(c3nnc(-c4ccc(F)cc4)o3)C2)cc1 (stereo unspecified),"inconclusive: 2.82 µM [inhibitor, single point]",–
Cc1cccc(OCC(=O)Nc2cccc(C(=O)Nc3ccccc3C(=O)O)c2)c1,–,inactive: 15.3%
COc1ccc(C(=O)C2CCCN(C(=O)c3cc(C(C)C)no3)C2)cc1F (stereo unspecified),–,inactive: -9.94% [at 9.22 µM]
Cc1ccc(N2C(=O)N(CC(=O)N(C)Cc3ccccc3)C(=O)C2C)cc1 (stereo unspecified),"inconclusive: 10 µM [inhibitor, partial curve]",–

# Sorted by molar mass (high to low): 3 of the compounds above
Structure (SMILES),Potency,"activity change, negative = inhibition"
O=C(NC(=S)Nc1ccccc1N1CCCCC1)c1ccccc1,–,inactive: 2.89% [at 9.22 µM]
O=C(NCc1cccnc1)C1COc2ccccc2O1 (stereo unspecified),–,inactive: 14.8%
CCc1nc2ccccc2n1Cc1ccccc1OC,"inconclusive: 15.8 µM [inhibitor, single point]",–
